{"source": "the supplement of paper PMC8728848", "assay_in_all_cases": "glycan array binding signal (z-score within array); higher = stronger binding", "conditions_in_all_cases": "glycan notation: IUPAC condensed, linker removed", "key": {"[1]": {"biological_target": "GalNAc(b1-3)Gal", "outline": "(§1)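 Negative Z-scores can be read as non-binding. The Z-score is calculated within each array and then averaged across arrays of one protein sequence at different concentrations or buffers and across linkers. Arrays, 3228 in all, were curated from the Consortium for Functional Glycomics database and kept only where the protein sequence was available.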"}, "[2]": {"biological_target": "GalNAc(b1-3)Gal(a1-4)Gal(b1-4)GlcNAc", "outline": "as §1"}, "[3]": {"biological_target": "GalNAc(b1-3)Gal(a1-4)Gal(b1-4)GlcNAc(b1-3)Gal(b1-4)Glc", "outline": "as §1"}, "[4]": {"biological_target": "GalNAc(b1-3)Gal(a1-6)Gal(b1-4)Glc", "outline": "as §1"}, "[5]": {"biological_target": "GalNAc(b1-3)GalNAc", "outline": "as §1"}, "[6]": {"biological_target": "GalNAc(b1-3)GlcNAc", "outline": "as §1"}, "[7]": {"biological_target": "GalNAc(b1-4)Gal(b1-4)Glc", "outline": "as §1"}, "[8]": {"biological_target": "GalNAc(b1-4)GlcNAc", "outline": "as §1"}, "[9]": {"biological_target": "GalNAc(b1-4)GlcNAc(b1-2)Man", "outline": "as §1"}, "[10]": {"biological_target": "GalNAc(b1-4)GlcNAc(b1-2)Man(a1-3)[GalNAc(b1-4)GlcNAc(b1-2)Man(a1-6)]Man(b1-4)GlcNAc(b1-4)GlcNAc", "outline": "as §1"}, "[11]": {"biological_target": "GalNAc(b1-4)GlcNAc(b1-3)GalNAc(b1-4)GlcNAc", "outline": "as §1"}, "[12]": {"biological_target": "GalNAc(b1-4)GlcNAc6S", "outline": "as §1"}, "[13]": {"biological_target": "GalNAc(b1-6)GalNAc", "outline": "as §1"}, "[14]": {"biological_target": "GalNAc3S(b1-4)GlcNAc", "outline": "as §1"}, "[15]": {"biological_target": "GalNAc3S(b1-4)GlcNAc3S", "outline": "as §1"}, "[16]": {"biological_target": "GalNAc3S(b1-4)[Fuc(a1-3)]GlcNAc", "outline": "as §1"}, "[17]": {"biological_target": "GalNAc4S6S(b1-4)GlcNAc", "outline": "as §1"}, "[18]": {"biological_target": "GalNAc6S(b1-4)GlcNAc", "outline": "as §1"}, "[19]": {"biological_target": "Glc(a1-4)Glc", "outline": "as §1"}, "[20]": {"biological_target": "Glc(a1-4)Glc(a1-4)Glc(a1-4)Glc", "outline": "as §1"}, "[21]": {"biological_target": "Glc(a1-6)Glc(a1-6)Glc", "outline": "as §1"}, "[22]": {"biological_target": "Glc(a1-6)Glc(a1-6)Glc(a1-6)Glc", "outline": "as §1"}, "[23]": {"biological_target": "Glc(b1-4)Glc", "outline": "as §1"}, "[24]": {"biological_target": "Glc(b1-6)Glc", "outline": "as §1"}, "[25]": {"biological_target": "GlcA(b1-3)Gal", "outline": "as §1"}, "[26]": {"biological_target": "GlcA(b1-3)GlcNAc", "outline": "as §1"}, "[27]": {"biological_target": "GlcA(b1-6)Gal", "outline": "as §1"}, "[28]": {"biological_target": "GlcA3S(b1-3)Gal(b1-4)GlcNAc(b1-2)Man", "outline": "as §1"}, "[29]": {"biological_target": "GlcA3S(b1-3)Gal(b1-4)GlcNAc(b1-3)Gal(b1-4)Glc", "outline": "as §1"}, "[30]": {"biological_target": "GlcNAc(a1-3)Gal(b1-4)GlcNAc", "outline": "as §1"}, "[31]": {"biological_target": "GlcNAc(a1-4)Gal(b1-3)GlcNAc", "outline": "as §1"}, "[32]": {"biological_target": "GlcNAc(a1-4)Gal(b1-4)GalNAc", "outline": "as §1"}, "[33]": {"biological_target": "GlcNAc(a1-4)Gal(b1-4)GlcNAc", "outline": "as §1"}, "[34]": {"biological_target": "GlcNAc(a1-4)Gal(b1-4)GlcNAc(b1-3)Gal(b1-4)Glc", "outline": "as §1"}, "[35]": {"biological_target": "GlcNAc(a1-4)Gal(b1-4)GlcNAc(b1-3)Gal(b1-4)GlcNAc", "outline": "as §1"}, "[36]": {"biological_target": "GlcNAc(a1-4)Gal(b1-4)GlcNAc(b1-3)Gal(b1-4)GlcNAc(b1-3)Gal(b1-4)GlcNAc", "outline": "as §1"}, "[37]": {"biological_target": "GlcNAc(a1-4)Gal(b1-4)GlcNAc(b1-3)Gal(b1-4)[Fuc(a1-3)]GlcNAc(b1-3)Gal(b1-4)[Fuc(a1-3)]GlcNAc", "outline": "as §1"}, "[38]": {"biological_target": "GlcNAc(a1-6)Gal(b1-4)GlcNAc", "outline": "as §1"}}, "note": "This is one part of the list.", "data": [{"binder": "SAOUHSC 02783 (Staphylococcus aureus), Q5HD69 (protein) MIHSKKLTLGICLVLLIILIVGYVIMTKTNGRNAQIKDTFNQTLKLYPTKNLDDFYDKEGFRDQEFKKGDKGTWIVNSEMVIEPKGKDMETRGMVLYINRNTRTTKGYYFISEMTDDSNGRPKDDEKRYPVKMEHNKIIPTKPLPNDKLKKEIENFKFFVQYGNFKDINDYKDGDISYNPNVPSYSAKYQLNNDDYNVQQLRKRYDIPTKQAPKLLLKGDGDLKGSSVGSRSLEFTFVENKEENIYFTDSVQYTPSEDTRYESN", "values": [{"measurement": "glycan array binding signal (z-score)", "setting": "[1]", "value": 1.71}, {"measurement": "glycan array binding signal (z-score)", "setting": "[2]", "value": -0.34}, {"measurement": "glycan array binding signal (z-score)", "setting": "[3]", "value": 0.615}, {"measurement": "glycan array binding signal (z-score)", "setting": "[4]", "value": 0.426}, {"measurement": "glycan array binding signal (z-score)", "setting": "[5]", "value": 0.078}, {"measurement": "glycan array binding signal (z-score)", "setting": "[6]", "value": -0.057}, {"measurement": "glycan array binding signal (z-score)", "setting": "[7]", "value": -0.635}, {"measurement": "glycan array binding signal (z-score)", "setting": "[8]", "value": -0.94}, {"measurement": "glycan array binding signal (z-score)", "setting": "[9]", "value": -1.26}, {"measurement": "glycan array binding signal (z-score)", "setting": "[10]", "value": 0.776}, {"measurement": "glycan array binding signal (z-score)", "setting": "[11]", "value": 0.9}, {"measurement": "glycan array binding signal (z-score)", "setting": "[12]", "value": 0.614}, {"measurement": "glycan array binding signal (z-score)", "setting": "[13]", "value": -0.896}, {"measurement": "glycan array binding signal (z-score)", "setting": "[14]", "value": -0.138}, {"measurement": "glycan array binding signal (z-score)", "setting": "[15]", "value": -0.052}, {"measurement": "glycan array binding signal (z-score)", "setting": "[16]", "value": -1.08}, {"measurement": "glycan array binding signal (z-score)", "setting": "[17]", "value": -0.245}, {"measurement": "glycan array binding signal (z-score)", "setting": "[18]", "value": -0.879}, {"measurement": "glycan array binding signal (z-score)", "setting": "[19]", "value": 0.82}, {"measurement": "glycan array binding signal (z-score)", "setting": "[20]", "value": 1.43}, {"measurement": "glycan array binding signal (z-score)", "setting": "[21]", "value": -0.322}, {"measurement": "glycan array binding signal (z-score)", "setting": "[22]", "value": -0.71}, {"measurement": "glycan array binding signal (z-score)", "setting": "[23]", "value": -1.03}, {"measurement": "glycan array binding signal (z-score)", "setting": "[24]", "value": 0.024}, {"measurement": "glycan array binding signal (z-score)", "setting": "[25]", "value": -0.403}, {"measurement": "glycan array binding signal (z-score)", "setting": "[26]", "value": -0.267}, {"measurement": "glycan array binding signal (z-score)", "setting": "[27]", "value": 2.83}, {"measurement": "glycan array binding signal (z-score)", "setting": "[28]", "value": 0.195}, {"measurement": "glycan array binding signal (z-score)", "setting": "[29]", "value": 1.27}, {"measurement": "glycan array binding signal (z-score)", "setting": "[30]", "value": -1.29}, {"measurement": "glycan array binding signal (z-score)", "setting": "[31]", "value": 0.687}, {"measurement": "glycan array binding signal (z-score)", "setting": "[32]", "value": -0.19}, {"measurement": "glycan array binding signal (z-score)", "setting": "[33]", "value": -0.454}, {"measurement": "glycan array binding signal (z-score)", "setting": "[34]", "value": -0.807}, {"measurement": "glycan array binding signal (z-score)", "setting": "[35]", "value": 0.739}, {"measurement": "glycan array binding signal (z-score)", "setting": "[36]", "value": -0.627}, {"measurement": "glycan array binding signal (z-score)", "setting": "[37]", "value": -0.718}, {"measurement": "glycan array binding signal (z-score)", "setting": "[38]", "value": -0.399}]}]}
